Laboratory results taken from patent US8053415B2 (Washington University in St. Louis, priority 2005, dated 2011).
For some assays here: Some peptides are written in HELM: one residue between dots, names in brackets for other building blocks, links after the first $.

Columns and labels:
[1] = general procedure: Fmoc solid-phase peptide synthesis; Wang resin pre-loaded with Fmoc-Lys-OH; Rink amide MBHA resin (0.4 mmol/g); 2-chlorotrityl resin for cyclic lactam pepti; HBTU/HOBt/DIEA; details: for isolated mass / isolated yield: whole synthesis
[2] = general procedure: Fmoc solid-phase peptide synthesis; Fmoc-Val-2-chlorotrityl resin; HBTU/HOBt/DIEA; details: whole synthesis, scale of the general procedure 25 μmol

Question: Which results are given for PEPTIDE1{[DOTA].G.R.D.S.P.K}$$$$V2.0?
Answer: isolated mass ([1]; scale 25-μmol): 9.2 mg; isolated yield ([1]; scale 25-μmol): 35%

Question: With “Cyclo[Arg(Pbf)-Gly-Asp(Obu^t)-Dphe-Val-Lys]” as the substance, how does the cyclisation yield ([1]; cyclisation step) read?
Answer: 23%

Question: For “H-Lys(Dde)-Arg(Pbf)-Gly-Asp(Obu^t)-Dphe-Val-OH”, which crude yield [2] is on record?
Answer: 60%

Question: With “Cypate-3-GRDSPK (cypate conjugate; (1)..(1) CYPATE-3 DYE ATTACHED; listed as Homo sapiens)” as the substance, how does the isolated mass ([1]; scale 25 umol) read?
Answer: 5.2 mg

Question: What about the isolated yield ([1]; scale 25 umol) of the same substance?
Answer: 16.8% isolated yield

Question: What does the source list for Cypate-GRDSPK?
Answer: isolated mass ([1]; scale 25 umol): 8.1 mg; isolated yield ([1]; scale 25 umol): 25.6% isolated yield

Question: For “PEPTIDE1{K.R.G.D.[dF].V}|CHEM1{[Cypate]}$PEPTIDE1,PEPTIDE1,1:R1-6:R2|PEPTIDE1,CHEM1,1:R3-1:R2$$$V2.0”, which conjugation yield ([1]; conjugation step) is on record?
Answer: 12%

Question: Which isolated mass ([1]; scale 25 umol) does the source give for Cypate-GRGDPK here?
Answer: 6.4 mg

Question: What about the isolated yield ([1]; scale 25 umol) of the same substance?
Answer: 19.4% isolated yield
